Measurements taken from PubChem BioAssay AID504327 (National Center for Advancing Translational Sciences (NCATS), 2011).
Several values for one entry are separate records, joined by “and”; a condition that tells them apart may be missing. Identical values can stand only once. About 820 (0.21%) of roughly 390,000 compounds were called active. The inconclusive results got no clear call from the source; some entries with a clear call stand among them for comparison. Calls come from the whole dose curve; as a rule, active = well fitted inhibition curve with a large enough effect; inconclusive = small, poorly fitted or top-dose-only effect, or another doubt; inactive = no such curve, though single readings can be large or run the other way. A potency beside an inconclusive call is a rough fit, not a confirmed value.

Protein sequences, listed by entry. Tags and fused reporters are not part of them.
UniProt Q92830, whole entry, looked up: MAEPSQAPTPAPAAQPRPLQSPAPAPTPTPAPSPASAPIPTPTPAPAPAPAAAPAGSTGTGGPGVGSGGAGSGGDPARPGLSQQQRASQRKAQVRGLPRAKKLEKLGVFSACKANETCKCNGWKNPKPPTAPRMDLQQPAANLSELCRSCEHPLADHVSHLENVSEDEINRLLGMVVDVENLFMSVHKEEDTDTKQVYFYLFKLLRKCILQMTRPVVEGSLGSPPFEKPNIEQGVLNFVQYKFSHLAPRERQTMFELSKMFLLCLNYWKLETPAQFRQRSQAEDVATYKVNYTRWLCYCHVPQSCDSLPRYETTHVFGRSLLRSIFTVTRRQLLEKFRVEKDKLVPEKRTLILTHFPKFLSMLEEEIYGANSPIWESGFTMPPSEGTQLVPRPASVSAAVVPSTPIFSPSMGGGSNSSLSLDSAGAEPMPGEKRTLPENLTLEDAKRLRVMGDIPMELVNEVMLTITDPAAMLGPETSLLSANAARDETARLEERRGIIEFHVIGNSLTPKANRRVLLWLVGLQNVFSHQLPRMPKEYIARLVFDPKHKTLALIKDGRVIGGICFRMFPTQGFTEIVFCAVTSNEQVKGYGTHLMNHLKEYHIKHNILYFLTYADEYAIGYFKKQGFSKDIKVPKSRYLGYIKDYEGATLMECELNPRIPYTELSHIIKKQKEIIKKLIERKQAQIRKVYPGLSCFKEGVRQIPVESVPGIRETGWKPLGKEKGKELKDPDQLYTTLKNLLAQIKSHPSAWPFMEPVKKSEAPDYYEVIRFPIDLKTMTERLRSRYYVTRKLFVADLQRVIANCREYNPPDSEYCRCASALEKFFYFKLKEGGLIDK

Target: Histone acetyltransferase KAT2A (Homo sapiens) (UniProt Q92830)
Assay: qHTS Assay for Inhibitors of GCN5L2
Details: GCN5L2 HAT assay, ThioGlo1 CoA-SH fluorescence; activity change, negative = inhibition: at 58.9 µM (top of the series) unless noted
In short: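 Free CoA generated was detected with ThioGlo1 (50uM) fluorescence at Ex340nm/Em540nm, read immediately and after 20 min at room temperature. Enzyme, 20 nM in HEPES pH 7.5 buffer, saw compounds 15 min before adding 75uM H3(1-25) peptide and 70uM acetyl-CoA.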
% is set by controls: 0 for no effect and ±100 for the full control effect; potency is the fitted concentration of half-maximal effect.

| SMILES | activity change, negative = inhibition | Potency |
| --- | --- | --- |
| CNCc1cc(Br)c(OCC(=O)Nc2ccccc2OC)c(OC)c1 | inactive: 3.01% | – |
| C=CCn1c(=O)c2c(nc(-c3ccc(S(=O)(=O)O)cc3)n2C)n(C)c1=O | – | inconclusive: 39.8 µM [inhibitor, single point] |
| CN(C)S(=O)(=O)N1CCC(n2nccc2NC(=O)CCc2ccccc2)CC1 | – | inconclusive: 0.708 µM [inhibitor, full curve, poor fit] |
| CS(=O)(=O)Nc1cccc(-c2ccc3ncnc(N4CCOCC4)c3c2)c1 | – | inconclusive: 31.6 µM [inhibitor, partial curve] |
| CC1CC(NC(=O)c2cc3c(=O)n4ccccc4nc3n2C)CC(C)(C)C1 (stereo not given) | – | inconclusive: 39.8 µM [inhibitor, single point] |
| O=[N+]([O-])c1cc(Br)c(O)c(/C=N/Nc2nnnn2-c2cccc3ccccc23)c1 | – | inconclusive: 35.5 µM [inhibitor, single point] |
| N#C/C(=C\c1cccs1)C(=O)c1ccccc1Cl | – | inconclusive: 31.6 µM [inhibitor, partial curve] |
| Cc1[nH][nH]c(=O)c1N=Nc1ccccc1Cl | – | inconclusive: 0.355 µM [inhibitor, full curve, poor fit] |
| COc1ccc(NC(C)=O)cc1NC(=O)CN1CCN(CC(=O)Nc2ccc(Cl)cc2)CC1 | – | inconclusive: 1 µM [inhibitor, single point] |
| CCN(CC)C(=O)CSc1nnc(CSc2ncccn2)n1C | – | inconclusive: 39.8 µM [inhibitor, single point] |
| CCN(CC1CCCO1)C(=O)CCc1nnc(Cc2ccc3c(c2)OCO3)o1 (stereo not given) | – | inconclusive: 39.8 µM [inhibitor, single point] |
| CCCC(=O)OCCn1c(Br)nc2c1c(=O)[nH]c(=O)n2C | inactive: 2.3% | – |
| COc1ccc(OCc2ccc(C(=O)O)cc2)cc1 | – | inconclusive: 3.16 µM [inhibitor, partial curve] |
| CC(=O)Nc1ccc(-c2csc(Nc3ccc(S(N)(=O)=O)cc3)n2)cc1 | inactive: -1.71% | – |
| CCOC(=O)Cc1ccc(NC(=O)N(Cc2ccc(OC)cc2)C2CCN(C(C)=O)CC2)cc1 | inactive: -4.75% | – |
| COc1ccc(NC(=O)c2cc(-c3ccccc3)on2)cc1 | – | inconclusive: 17.8 µM [inhibitor, partial curve] |
| COC(=O)NC1CSCC1OC(=O)CCN1C(=O)c2ccccc2C1=O (stereo not given) | – | inconclusive: 0.708 µM [inhibitor, full curve, poor fit] |
| Cc1ccc(/C=C/C(=O)NCC2COc3ccccc3O2)o1 (stereo not given) | – | inconclusive: 25.1 µM [inhibitor, single point] |
| CCOc1ccc(C(=O)Nc2nnc(S(=O)(=O)Nc3ccccc3C)s2)cc1 | – | inconclusive: 6.31 µM [inhibitor, single point] |
| O=C(NNC1=Nc2cc([N+](=O)[O-])ccc2OC1)c1ccccc1Cl | – | inconclusive: 35.5 µM [inhibitor, single point] |
| O=C1CN(C(=O)c2cc3ccccc3o2)c2ccccc2N1 | – | inconclusive: 7.94 µM [inhibitor, single point] |
| Cc1cc(C)c(S(=O)(=O)N2CCCCC2CCNC(=O)C(=O)NC2CC2)c(C)c1 (stereo not given) | – | inconclusive: 17.8 µM [inhibitor, partial curve] |

| SMILES | activity change, negative = inhibition | Potency |
| --- | --- | --- |
| COc1ccc(/C=C(\C#N)C(=O)Nc2cccc(C)n2)cc1 | – | inconclusive: 28.2 µM [inhibitor, single point] |
| Cc1ccc(S(=O)(=O)NC(=O)NN2CCCCCC2)cc1 | – | inconclusive: 14.1 µM [inhibitor, partial curve, poor fit] |
| CCOC(=O)c1sc(NC(=O)c2cc3n(n2)C(C(F)(F)F)CC(c2cccs2)N3)c(C(=O)OCC)c1C (stereo not given) | – | inconclusive: 0.891 µM [inhibitor, full curve] |
| COCCn1c(=O)c(-c2ccc(OC)cc2)nc2cnc(Nc3ccccc3)nc21 | – | inconclusive: 1.41 µM [inhibitor, partial curve] |
| O=Cc1cn(CC(=O)Nc2ccccc2)c2ccccc12 | – | inconclusive: 6.31 µM [inhibitor, single point] |
| Cc1cc(/C=C2/C(=N)N3C(=NC2=O)SN=C3S(C)(=O)=O)c(C)n1-c1ccccc1F | – | active: 22.4 µM |
| CCCCCCNC(=O)CSc1nccn1Cc1ccccc1 | inconclusive: -102% [inhibitor] [at 0.501 µM] | – |
| Cc1ccc(-n2nc3c(c2NC(=O)c2ccc(Br)o2)CSC3)c(C)c1 | – | inconclusive: 10 µM [inhibitor, partial curve] |
| CCc1cc(=O)oc2c3c(cc(OCC(=O)NCCC(=O)O)c12)OC(C)(C)CC3 | – | inconclusive: 31.6 µM [inhibitor, partial curve] |
| CCOC(=O)C1CCCN(S(=O)(=O)c2cc3[nH]c(=O)c(=O)[nH]c3cc2C)C1 (stereo not given) | inactive: -8.45% | – |
| O=C(CN1C(=O)S/C(=C\c2cccs2)C1=O)Nc1ccc(O)cc1C(=O)O | – | inconclusive: 14.1 µM [inhibitor, partial curve, poor fit] |
| Cc1ccnc(NC(=O)CNC(=O)c2ccccc2Br)c1 | – | inconclusive: 1 µM [inhibitor, full curve, poor fit] |
| Nc1c(S(=O)(=O)O)cc(Nc2ccc(Cl)cc2)c2c1C(=O)c1ccccc1C2=O | – | active: 28.2 µM |
| COc1ccc(-c2nc(CS(=O)(=O)CC(=O)NCc3cccc(OC)c3OC)c(C)o2)cc1 | – | inconclusive: 39.8 µM [inhibitor, single point] |
| Cc1cc(N2C(=O)C(O)=C(C(=O)c3cc4ccccc4o3)C2c2ccc([N+](=O)[O-])cc2)no1 (stereo not given) | – | inconclusive: 28.2 µM [inhibitor, single point] |
| c1ccc(-c2cc(-c3ccccc3)on2)cc1 | inactive: -4.05% | – |
| CCC1=Nc2cc(C(=O)NCCc3ccc(OC)c(OC)c3)ccc2Sc2ccccc21 | inactive: -10.5% | – |
| COC(=O)c1c(C)[nH]c(C)c1-c1ccccc1 | – | inconclusive: 39.8 µM [inhibitor, single point] |
| CCCCCCCCCCCCCCCCOP(=O)([O-])OCC[N+](C)(C)C | – | inconclusive: 39.8 µM [inhibitor, single point] |
| Cc1cc(C)cc(SCc2noc(C(=O)NCC3CCCO3)c2C(=O)O)c1 (stereo not given) | inactive: -2.16% | – |
| Cc1ccsc1/C=C/C1=NCCCN1C | – | inactive |
| COc1ccccc1NC(=O)C1=C(C)Nc2c(C(=O)Nc3ccc(C)cc3)cnn2C1c1cccc(OC)c1OC (stereo not given) | – | inconclusive: 10 µM [inhibitor, partial curve] |

| SMILES | activity change, negative = inhibition | Potency |
| --- | --- | --- |
| CCCn1c(=O)[nH]c2nc(-c3ccc(S(=O)(=O)O)cc3)[nH]c2c1=O | – | inconclusive: 31.6 µM [inhibitor, partial curve] and inconclusive: 39.8 µM [inhibitor, single point] |
| CCCNC(=O)COc1coc(CN2CCN(c3ccc(F)cc3)CC2)cc1=O | – | inconclusive: 0.708 µM [inhibitor, full curve] |
| Cc1oc(-c2ccccc2Cl)nc1CSCC(=O)N1CCCC1 | inactive: 0.499% | – |
| COc1ccccc1CCNC(=O)c1ccc(Br)s1 | – | inconclusive: 0.708 µM [inhibitor, full curve] |
| O=C(COC(=O)c1ccccc1)Nc1ncc([N+](=O)[O-])s1 | – | inconclusive: 20 µM [inhibitor, partial curve] |
| Cc1n[nH]c(C)c1S(=O)(=O)N1CCOCC1 | – | inconclusive: 0.631 µM [inhibitor, full curve, poor fit] |
| CC(=O)Nc1ccc(N=NC2C(=O)N(C(N)=S)N=C2C)cc1 (stereo not given) | – | inconclusive: 35.5 µM [inhibitor, single point] |
| COC(=O)c1ccccc1-c1c2ccc(=N)cc-2oc2cc(N)ccc12 | – | inconclusive: 31.6 µM [inhibitor, single point] |
| COc1ccc(CCNC(=O)/C=C/c2ccc(C)cc2)cc1OC | – | inconclusive: 0.631 µM [inhibitor, full curve] |
| Cc1c(Cl)ccc2sc(NC(=O)c3ccco3)nc12 | – | inconclusive: 0.631 µM [inhibitor, full curve, poor fit] |
| CCOC(=O)C1CCCN(c2nc3ccccc3nc2C(C#N)C(=O)NCc2ccccc2)C1 (stereo not given) | – | inconclusive: 0.355 µM [inhibitor, full curve, poor fit] |
| O=C(O)CCCN1C(=O)/C(=C/c2cn(-c3ccccc3)nc2-c2cccs2)SC1=S | – | inconclusive: 28.2 µM [inhibitor, single point] |
| O=C(c1cccc(F)c1)N1CCC2(CCN(Cc3ccccc3)CC2)CC1 | inactive: 5.23% | – |
| CCOC(=O)c1sc(NC(=O)C2CC(=O)N(c3ccc4c(c3)OCCO4)C2)nc1C (stereo not given) | – | inconclusive: 31.6 µM [inhibitor, single point] |
| CCn1cc(C(=O)O)c(=O)c2cnc(N3CCN(C(=S)Nc4ccccc4C(F)(F)F)CC3)nc21 | – | inconclusive: 8.91 µM [inhibitor, single point] |
| Cc1ccc(NC(=O)CN2C(=O)N/C(=C\c3cccn3-c3cccc(C(=O)O)c3)C2=O)cc1 | – | inconclusive: 28.2 µM [inhibitor, single point] |
| COc1cccc(C(=O)Nc2ccccc2C(=O)NCC2CCCO2)c1 (stereo not given) | – | inconclusive: 5.01 µM [inhibitor, full curve, poor fit] |
| CCOc1ccccc1N(C(=O)c1snc(C(N)=O)c1N)C(C(=O)NCC1CCCO1)c1ccc2ncccc2c1 (stereo not given) | inactive: -10% | – |
| COC(=O)c1c(-c2ccc(OC)cc2)oc2ccc(-c3ccc(OC)nc3)cc12 | inactive: 0.73% | – |
| COc1cc(/C=C2\OC(=O)c3c(OC)cccc32)ccc1O | – | inconclusive: 31.6 µM [inhibitor, partial curve] |
| CNC(=S)NNC(=O)c1cccc(C(F)(F)F)c1 | inactive: -2.08% | – |
